These are yes or no findings as the source states them, for the method shown. Some entries that bind do so weakly or less than the wild type. Values belong to the binder of their own block, whether it stands above or below them.
What was measured:
[1] = target: T1, Mcm5 (MCM subunit 5 of the Drosophila melanogaster CMG helicase) (Drosophila melanogaster) (UniProt Q9VGW6); assay: cryo-EM structure; purified Drosophila CMG; ATPγS–CMG–DNA fork complex (compact ATPase 7.4 Å, relaxed ATPase 9.8 Å) and ATP–CMG without DNA (compact and relaxed forms); maps read by rigid-body docking of yeast Mcm2-7 (PDB 3JA8), human GINS (PDB 2Q9Q) and RecJ (PDB 1IR6); buffer A: 25 mM Hepes pH 7.6, 50 mM sodium acetate, 10 mM magnesium acetate, 1 mM DTT; both purified
T1 sequence: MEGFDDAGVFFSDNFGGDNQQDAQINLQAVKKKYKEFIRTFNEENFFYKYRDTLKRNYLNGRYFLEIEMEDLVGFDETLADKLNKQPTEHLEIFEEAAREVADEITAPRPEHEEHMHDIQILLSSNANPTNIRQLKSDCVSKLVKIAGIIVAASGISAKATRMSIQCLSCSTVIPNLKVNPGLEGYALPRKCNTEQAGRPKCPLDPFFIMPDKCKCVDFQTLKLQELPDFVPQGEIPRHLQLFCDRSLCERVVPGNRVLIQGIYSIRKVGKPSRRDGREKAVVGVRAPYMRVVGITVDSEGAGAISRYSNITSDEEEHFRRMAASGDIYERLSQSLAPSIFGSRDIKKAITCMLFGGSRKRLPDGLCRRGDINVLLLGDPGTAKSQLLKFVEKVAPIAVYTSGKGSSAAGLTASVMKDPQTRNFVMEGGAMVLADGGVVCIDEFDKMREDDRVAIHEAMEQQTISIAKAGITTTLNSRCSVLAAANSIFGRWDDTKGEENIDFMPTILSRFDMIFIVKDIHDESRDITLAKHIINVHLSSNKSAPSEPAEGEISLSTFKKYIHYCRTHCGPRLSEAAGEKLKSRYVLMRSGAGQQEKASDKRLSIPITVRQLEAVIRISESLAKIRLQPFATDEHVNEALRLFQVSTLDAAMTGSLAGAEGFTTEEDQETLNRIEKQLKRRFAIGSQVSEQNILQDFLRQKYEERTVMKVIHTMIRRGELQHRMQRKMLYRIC

[2] = target: T2, Mcm2 (MCM subunit 2 of the Drosophila melanogaster CMG helicase) (Drosophila melanogaster) (UniProt P49735); assay: as above
T2 sequence: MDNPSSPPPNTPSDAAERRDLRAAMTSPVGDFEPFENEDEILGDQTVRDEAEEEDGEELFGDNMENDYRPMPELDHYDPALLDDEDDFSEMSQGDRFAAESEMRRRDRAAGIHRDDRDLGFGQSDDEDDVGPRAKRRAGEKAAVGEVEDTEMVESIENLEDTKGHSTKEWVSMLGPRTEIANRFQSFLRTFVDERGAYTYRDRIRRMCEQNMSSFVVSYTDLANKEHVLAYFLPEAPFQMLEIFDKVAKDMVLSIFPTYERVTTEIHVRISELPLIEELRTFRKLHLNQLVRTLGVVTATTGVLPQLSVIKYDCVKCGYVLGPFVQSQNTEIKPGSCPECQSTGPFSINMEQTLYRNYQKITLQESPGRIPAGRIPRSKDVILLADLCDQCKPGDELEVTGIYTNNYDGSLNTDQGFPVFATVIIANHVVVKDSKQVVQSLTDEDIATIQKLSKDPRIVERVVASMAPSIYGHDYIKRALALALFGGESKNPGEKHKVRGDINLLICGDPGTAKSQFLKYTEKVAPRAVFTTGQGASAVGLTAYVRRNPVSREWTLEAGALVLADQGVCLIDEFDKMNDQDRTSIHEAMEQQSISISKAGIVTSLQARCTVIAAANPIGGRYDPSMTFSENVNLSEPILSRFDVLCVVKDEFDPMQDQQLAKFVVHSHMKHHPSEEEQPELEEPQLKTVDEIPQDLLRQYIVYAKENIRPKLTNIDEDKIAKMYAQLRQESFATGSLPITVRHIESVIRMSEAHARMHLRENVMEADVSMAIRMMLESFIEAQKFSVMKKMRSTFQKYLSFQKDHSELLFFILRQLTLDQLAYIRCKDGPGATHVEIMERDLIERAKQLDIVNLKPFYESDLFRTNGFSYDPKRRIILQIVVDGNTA

binding [1]: binds | binding [2]: binds
B1: Cdc45 (subunit of the Drosophila melanogaster CMG helicase) (protein, UniProt O96989 1-575)
chain: MFVQDLRNDFYRQLVGKRILIVVNYDIDAICASRILQALFKYDHMLYTVVPIMGVTGLKRAYGEHQGDVKYVVLVNCGGCVDIVELLQPSDDVTFFICDSHRPLDVCNIYSDRQVCILGDASLEENIPAFETIFYDSEGEDEDEDESSDTEQQHDDSGAGESDQEDQAPRSRKLSRLERHEQRILKQRARRQWESERDRIMFEYTQFSYYGRSAALMVFELAWKLSKDNMDLLWWAIVGITEQLLLGKIESGAYTLELEQIQSHVSRLTNKTNDQNTMSASKITFENDLHLVLYRHWPVTESMRYSRYSSCQLKLWTLRGEKRLHELLLEMGLPLVHARQTYGAMDLVLRKEFFSMVERLAEKYDIADIVYGTFTLSYGYRSRYAAADYVYALLAIMESVKKHKTPEDCFLEASDALSRQHKQLLSAGIDQAKLLHAAVFRQVQSSLEARQVHSAGSFFYYVLQEEHAFFSYPYALGLLARFLLRGHVATSRARQASDLPLIASCPLNASEGMCLLVGIVPVREDSPRNFFGKAFEQAAQKSGVALLQDFFEPAVVQLRQSDLTRFLDSLTVLLA

binding [1]: binds
B2: Psf2 (GINS component of the Drosophila melanogaster CMG helicase) (protein, UniProt Q9VQY9 1-203)
chain: MDPSIIEFIGEKCMISIIPNFSNEPLHLIYGPVGPFRAGFPVFVPLWMATHLRKQQKCRIVPPEWMDMDILEEIKEEEKRSKFFTKMPCEHYMVVAQLVMSTAPDDVPRCEELRTVIKDIFDIRESKLRTSIDAFIKGEGTYAKLDNLTLLEIHSVRPILPYSLDHIARYQRTATASQRDTSMLSASMAGSSSGPNSNSLFSQ
